PubChem BioAssay AID1224826, NIAID, 2016
The whole screen tested about 17,000 reagents; shown is an unselected part. About 1,110 of them (6.6%) were called active. 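Active means lowered or raised reporter signal; replicate intensities are raw and not normalised per plate.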 Entries without a mark were called inactive. Further read-outs or replicates are left out here.

Test: 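Regulators of Tlr4 signalling leading to Tnf-alpha expression in macrophages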 (primary screen)
Cells: RAW264.7 G9 macrophages from mouse bearing reporters for p65 (GFP) and the Tnf promoter (mCherry)
Reagents: siRNA pool against mouse genes, 100 nM
Timing: 16 h of LPS stimulation, after 2 days of siRNA transfection
Treatment: bacterial lipopolysaccharide (Salmonella minnesota R595), 10 ng/ml
Measured: 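Nuclear mCherry signal of the Tnf promoter reporter measured by imaging after background removal, scaled to each plate median and turned into robust z-scores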
Direction: Tnf reporter robust z-score: higher = stronger Tnf promoter reporter signal after LPS; Tnf reporter intensity: higher = stronger Tnf promoter reporter signal
Hit rule: 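Called active when robust z-score is at most -1.3, matching the median of the Tlr4 knock-down control, or over 3; control wells and wells with under 50 cells never active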
Meaning of the calls: active = Tnf reporter clearly lowered or raised; inactive = no clear change in Tnf reporter

The opening 2 records, to show the layout:
gene	PubChem SID	Tnf reporter robust z-score	fewer than 50 cells in well	Tnf reporter intensity, replicate 1
Cdkl3 (GeneID 213084)	SID315477784		fewer than 50 cells per well; well left out of calls	104
Cyc1 (GeneID 66445)	SID315472448	-0.26	enough cells in well	196

Results, repeating the preview:
gene	PubChem SID	Tnf reporter robust z-score	fewer than 50 cells in well	Tnf reporter intensity, replicate 1
Cdkl3 (GeneID 213084)	SID315477784		fewer than 50 cells per well; well left out of calls	104
Cyc1 (GeneID 66445)	SID315472448	-0.26	enough cells in well	196
Pglyrp2 (GeneID 57757)	SID315471815	1.32	enough cells in well	159
Otud7a (GeneID 170711)	SID315477193	-1.36 (active)	enough cells in well	121
Dclk3 (GeneID 245038)	SID315479800	-0.46	enough cells in well	195
Ankef1 (GeneID 319196)	SID315481049	-0.06	enough cells in well	128
Tgm1 (GeneID 21816)	SID315469697	-0.47	enough cells in well	220
Plcz1 (GeneID 114875)	SID315477046	-0.49	enough cells in well	116
Pde10a (GeneID 23984)	SID315470270	0.27	enough cells in well	146
Guca1a (GeneID 14913)	SID315467078	-0.06	enough cells in well	268
Polr3gl (GeneID 69870)	SID315473921		fewer than 50 cells per well; well left out of calls	192
Or2t47 (GeneID 258495)	SID315480172	-0.86	enough cells in well	118
Creld2 (GeneID 76737)	SID315475368	-0.6	enough cells in well	133
Pabpc1 (GeneID 18458)	SID315468376		fewer than 50 cells per well; well left out of calls	145
Synpr (GeneID 72003)	SID315474418	0.34	enough cells in well	109
Or2y6 (GeneID 276865)	SID315480979	0.57	enough cells in well	281
D930031A20Rik (GeneID 319423)	SID315481086	2.21	enough cells in well	347
Slc45a1 (GeneID 242773)	SID315479651	-0.82	enough cells in well	124
Pfn2 (GeneID 18645)	SID315468481	-0.32	enough cells in well	240
Fgl1 (GeneID 234199)	SID315479143	2.14	enough cells in well	405
Zfp354c (GeneID 30944)	SID315470779	3.07 (active)	enough cells in well	273
Entrep2 (GeneID 70638)	SID315474103	0.81	enough cells in well	231
Hadh (GeneID 15107)	SID315467137		fewer than 50 cells per well; well left out of calls	170
Ear4 (GeneID 53877)	SID315471120		fewer than 50 cells per well; well left out of calls	35.6
